Data published in publication PMC2477742.

Protein sequences, listed by entry. Tags and fused reporters are not part of them. Lines headed by an entry give the natural chain unless they say otherwise; changes in a name come on top.
UniProt P42227, whole entry: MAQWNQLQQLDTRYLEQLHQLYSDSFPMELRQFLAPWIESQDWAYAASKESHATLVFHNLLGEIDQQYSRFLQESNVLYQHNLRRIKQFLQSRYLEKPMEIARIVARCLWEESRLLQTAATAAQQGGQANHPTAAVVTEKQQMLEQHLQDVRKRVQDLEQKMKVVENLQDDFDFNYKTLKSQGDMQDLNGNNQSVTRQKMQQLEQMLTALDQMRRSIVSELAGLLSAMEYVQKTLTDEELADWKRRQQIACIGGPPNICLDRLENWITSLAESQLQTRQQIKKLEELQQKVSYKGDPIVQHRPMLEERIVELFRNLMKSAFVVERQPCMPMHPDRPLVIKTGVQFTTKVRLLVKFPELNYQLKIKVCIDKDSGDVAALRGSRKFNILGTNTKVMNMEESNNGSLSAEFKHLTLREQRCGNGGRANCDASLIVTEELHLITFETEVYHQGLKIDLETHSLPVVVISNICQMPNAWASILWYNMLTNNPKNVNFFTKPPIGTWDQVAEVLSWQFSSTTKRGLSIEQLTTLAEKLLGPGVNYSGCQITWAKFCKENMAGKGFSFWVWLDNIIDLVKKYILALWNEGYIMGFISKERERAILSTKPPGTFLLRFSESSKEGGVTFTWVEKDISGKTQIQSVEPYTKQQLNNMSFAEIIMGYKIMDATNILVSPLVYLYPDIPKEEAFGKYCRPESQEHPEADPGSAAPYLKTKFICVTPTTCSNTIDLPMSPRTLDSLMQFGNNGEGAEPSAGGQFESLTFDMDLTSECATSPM
UniProt P42225: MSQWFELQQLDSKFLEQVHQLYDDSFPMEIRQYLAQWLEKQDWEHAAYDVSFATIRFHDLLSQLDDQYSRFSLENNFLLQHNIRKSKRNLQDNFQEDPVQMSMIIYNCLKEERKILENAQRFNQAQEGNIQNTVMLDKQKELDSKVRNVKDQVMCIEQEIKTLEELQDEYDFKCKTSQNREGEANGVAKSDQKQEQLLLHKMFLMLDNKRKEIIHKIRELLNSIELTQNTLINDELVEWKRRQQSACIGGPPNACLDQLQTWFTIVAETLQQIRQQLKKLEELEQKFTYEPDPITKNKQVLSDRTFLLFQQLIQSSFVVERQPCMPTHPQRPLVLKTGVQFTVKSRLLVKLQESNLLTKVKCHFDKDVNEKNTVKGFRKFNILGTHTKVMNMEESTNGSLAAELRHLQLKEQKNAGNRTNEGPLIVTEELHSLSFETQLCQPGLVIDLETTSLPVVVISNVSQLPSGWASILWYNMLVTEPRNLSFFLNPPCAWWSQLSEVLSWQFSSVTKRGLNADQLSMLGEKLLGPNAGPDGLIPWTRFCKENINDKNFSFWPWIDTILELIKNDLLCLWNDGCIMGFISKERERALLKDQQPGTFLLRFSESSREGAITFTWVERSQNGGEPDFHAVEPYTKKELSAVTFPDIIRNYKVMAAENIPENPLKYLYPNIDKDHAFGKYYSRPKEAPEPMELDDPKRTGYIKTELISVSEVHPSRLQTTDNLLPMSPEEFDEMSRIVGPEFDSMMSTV

Experiments:
[1] = target: STAT3 (IL-6-activated, phosphorylated) (mouse (NIH 3T3 cells)) (UniProt P42227); assay: EMSA supershift; conditions: NIH 3T3 nuclear extract, IL-6 30 min; 13.3 mM Hepes pH 7.6, 0.7 mM EDTA, 3.3 mM MgCl2, 34 mM KCl, 1 mM DTT, 10% glycerol, 0.5 ug poly(dI-dC), on ice 15 min; 5% PAGE in 0.25x TBE; protein in an extract; label: 32P (alpha-32P dATP end-labelling)
[2] = target: STAT1 (IFN-gamma-activated, phosphorylated) (UniProt P42225); assay: EMSA supershift; conditions: IFN-gamma 30 min, 13.3 mM Hepes pH 7.6, 0.7 mM EDTA, 3.3 mM MgCl2, 34 mM KCl, 1 mM DTT, 10% glycerol, 0.5 ug poly(dI-dC), on ice 15 min, 5% PAGE in 0.25x TBE, protein in an extract, label: 32P (alpha-32P dATP end-labelling)

Measured: binding result

GATCTAGGGATTTCCGGGAAATGAAGCT (double strand) [M67 (c-sis-inducible element probe)]
binds: [1] | [2]; NIH 3T3 nuclear extract | [2]; NIT nuclear extract

The exact form of at least one protein or probe is not confirmed. Where cells or extracts were used, other partners may take part.
